The list shows a part of the results.
Legend:
Assay in all cases: log2 fold change, soluble protein after heating vs DMSO (PISA); higher = thermal stabilisation; K562 lysate, 10 uM; active = over 0.2 and 3.5 SD of the protein, either way, in both replicates (recomputed)
erlotinib = compound: C#Cc1cccc(Nc2ncnc3cc(OCCOC)c(OCCOC)cc23)c1 [erlotinib]
How it was run: (§1)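 The values are log-two fold changes in thermal stability compared with solvent controls and come from duplicates. They were obtained by TMTpro 16plex LC-MS/MS, with channel sums equalised, on the supernatant after 21,000xg for 90 min. That supernatant came from crude K562 extract at 1 mg/mL protein treated with 10 μM compound for 30 min, heated for 3 min across 48°C-58°C, pooled and brought to 0.5% NP-40 at 4°C.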

Protein sequences, listed by entry. Tags and fused reporters are not part of them. Lines headed by an entry give the natural chain unless they say otherwise; changes in a name come on top.
UniProt Q9HC52: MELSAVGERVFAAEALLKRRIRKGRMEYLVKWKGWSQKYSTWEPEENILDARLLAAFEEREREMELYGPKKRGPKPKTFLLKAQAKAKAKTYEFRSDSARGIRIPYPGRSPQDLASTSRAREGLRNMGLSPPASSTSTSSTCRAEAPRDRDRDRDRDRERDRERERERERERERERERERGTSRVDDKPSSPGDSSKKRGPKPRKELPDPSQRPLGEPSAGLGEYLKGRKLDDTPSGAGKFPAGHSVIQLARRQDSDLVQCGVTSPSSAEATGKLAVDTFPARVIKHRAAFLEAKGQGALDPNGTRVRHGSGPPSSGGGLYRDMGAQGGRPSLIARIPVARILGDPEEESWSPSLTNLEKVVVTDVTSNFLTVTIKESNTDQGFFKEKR
UniProt Q9P031: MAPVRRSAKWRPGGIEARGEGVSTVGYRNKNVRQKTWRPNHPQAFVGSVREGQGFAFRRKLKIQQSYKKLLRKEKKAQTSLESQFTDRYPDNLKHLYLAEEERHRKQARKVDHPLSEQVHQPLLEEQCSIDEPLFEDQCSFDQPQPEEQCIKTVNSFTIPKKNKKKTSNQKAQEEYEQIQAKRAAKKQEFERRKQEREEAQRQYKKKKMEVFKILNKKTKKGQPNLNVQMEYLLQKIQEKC
UniProt P34810: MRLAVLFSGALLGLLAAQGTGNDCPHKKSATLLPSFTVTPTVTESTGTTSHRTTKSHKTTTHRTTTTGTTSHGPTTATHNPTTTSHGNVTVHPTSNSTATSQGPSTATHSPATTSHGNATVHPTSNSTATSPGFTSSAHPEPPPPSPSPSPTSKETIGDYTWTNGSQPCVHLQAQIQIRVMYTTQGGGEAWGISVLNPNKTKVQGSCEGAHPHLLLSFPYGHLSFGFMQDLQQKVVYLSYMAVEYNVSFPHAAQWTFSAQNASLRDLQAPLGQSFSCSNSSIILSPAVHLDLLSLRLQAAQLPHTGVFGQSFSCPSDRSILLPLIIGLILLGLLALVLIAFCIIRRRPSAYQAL
UniProt A6NKD9: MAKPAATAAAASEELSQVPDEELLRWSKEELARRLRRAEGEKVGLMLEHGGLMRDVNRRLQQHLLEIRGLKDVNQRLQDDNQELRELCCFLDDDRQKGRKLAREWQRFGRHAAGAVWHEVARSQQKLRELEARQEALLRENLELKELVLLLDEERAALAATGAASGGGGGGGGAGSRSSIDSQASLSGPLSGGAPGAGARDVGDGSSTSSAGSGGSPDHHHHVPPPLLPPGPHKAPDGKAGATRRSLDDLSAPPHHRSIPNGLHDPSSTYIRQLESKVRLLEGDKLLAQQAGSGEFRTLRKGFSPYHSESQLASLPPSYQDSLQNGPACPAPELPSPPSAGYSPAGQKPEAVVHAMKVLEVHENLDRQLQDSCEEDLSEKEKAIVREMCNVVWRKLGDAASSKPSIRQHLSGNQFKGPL
UniProt Q5ZPR3: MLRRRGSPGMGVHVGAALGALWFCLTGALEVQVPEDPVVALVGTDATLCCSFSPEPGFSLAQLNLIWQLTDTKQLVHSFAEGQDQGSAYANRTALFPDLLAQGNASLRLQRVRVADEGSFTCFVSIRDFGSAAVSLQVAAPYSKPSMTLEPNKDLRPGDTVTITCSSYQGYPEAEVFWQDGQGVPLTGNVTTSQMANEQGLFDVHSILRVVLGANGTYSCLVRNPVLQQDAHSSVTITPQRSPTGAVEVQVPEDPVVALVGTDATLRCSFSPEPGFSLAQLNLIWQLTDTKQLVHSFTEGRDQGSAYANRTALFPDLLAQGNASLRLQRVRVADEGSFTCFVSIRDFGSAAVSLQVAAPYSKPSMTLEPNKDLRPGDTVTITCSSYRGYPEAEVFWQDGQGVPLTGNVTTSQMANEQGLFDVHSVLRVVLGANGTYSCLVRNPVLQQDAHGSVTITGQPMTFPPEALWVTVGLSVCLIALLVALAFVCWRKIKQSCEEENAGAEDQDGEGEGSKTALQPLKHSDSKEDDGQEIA
UniProt Q04900: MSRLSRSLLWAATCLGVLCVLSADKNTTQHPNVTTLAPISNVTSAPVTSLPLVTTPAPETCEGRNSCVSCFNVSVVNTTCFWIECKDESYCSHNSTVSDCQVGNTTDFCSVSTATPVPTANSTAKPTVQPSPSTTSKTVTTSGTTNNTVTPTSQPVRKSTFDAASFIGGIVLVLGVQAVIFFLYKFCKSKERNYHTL
UniProt Q15762: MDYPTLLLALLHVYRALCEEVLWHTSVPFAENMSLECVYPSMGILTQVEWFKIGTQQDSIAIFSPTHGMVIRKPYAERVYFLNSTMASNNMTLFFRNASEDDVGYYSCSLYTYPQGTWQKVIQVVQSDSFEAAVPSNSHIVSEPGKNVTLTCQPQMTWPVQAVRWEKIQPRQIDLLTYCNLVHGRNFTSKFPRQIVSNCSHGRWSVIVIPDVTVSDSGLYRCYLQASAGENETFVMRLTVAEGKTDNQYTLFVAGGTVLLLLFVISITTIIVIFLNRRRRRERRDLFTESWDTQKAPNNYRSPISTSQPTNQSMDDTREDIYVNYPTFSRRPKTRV
UniProt Q9P0B6: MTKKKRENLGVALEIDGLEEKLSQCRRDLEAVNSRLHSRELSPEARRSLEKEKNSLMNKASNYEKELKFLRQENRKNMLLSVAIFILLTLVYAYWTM
UniProt Q5T9S5: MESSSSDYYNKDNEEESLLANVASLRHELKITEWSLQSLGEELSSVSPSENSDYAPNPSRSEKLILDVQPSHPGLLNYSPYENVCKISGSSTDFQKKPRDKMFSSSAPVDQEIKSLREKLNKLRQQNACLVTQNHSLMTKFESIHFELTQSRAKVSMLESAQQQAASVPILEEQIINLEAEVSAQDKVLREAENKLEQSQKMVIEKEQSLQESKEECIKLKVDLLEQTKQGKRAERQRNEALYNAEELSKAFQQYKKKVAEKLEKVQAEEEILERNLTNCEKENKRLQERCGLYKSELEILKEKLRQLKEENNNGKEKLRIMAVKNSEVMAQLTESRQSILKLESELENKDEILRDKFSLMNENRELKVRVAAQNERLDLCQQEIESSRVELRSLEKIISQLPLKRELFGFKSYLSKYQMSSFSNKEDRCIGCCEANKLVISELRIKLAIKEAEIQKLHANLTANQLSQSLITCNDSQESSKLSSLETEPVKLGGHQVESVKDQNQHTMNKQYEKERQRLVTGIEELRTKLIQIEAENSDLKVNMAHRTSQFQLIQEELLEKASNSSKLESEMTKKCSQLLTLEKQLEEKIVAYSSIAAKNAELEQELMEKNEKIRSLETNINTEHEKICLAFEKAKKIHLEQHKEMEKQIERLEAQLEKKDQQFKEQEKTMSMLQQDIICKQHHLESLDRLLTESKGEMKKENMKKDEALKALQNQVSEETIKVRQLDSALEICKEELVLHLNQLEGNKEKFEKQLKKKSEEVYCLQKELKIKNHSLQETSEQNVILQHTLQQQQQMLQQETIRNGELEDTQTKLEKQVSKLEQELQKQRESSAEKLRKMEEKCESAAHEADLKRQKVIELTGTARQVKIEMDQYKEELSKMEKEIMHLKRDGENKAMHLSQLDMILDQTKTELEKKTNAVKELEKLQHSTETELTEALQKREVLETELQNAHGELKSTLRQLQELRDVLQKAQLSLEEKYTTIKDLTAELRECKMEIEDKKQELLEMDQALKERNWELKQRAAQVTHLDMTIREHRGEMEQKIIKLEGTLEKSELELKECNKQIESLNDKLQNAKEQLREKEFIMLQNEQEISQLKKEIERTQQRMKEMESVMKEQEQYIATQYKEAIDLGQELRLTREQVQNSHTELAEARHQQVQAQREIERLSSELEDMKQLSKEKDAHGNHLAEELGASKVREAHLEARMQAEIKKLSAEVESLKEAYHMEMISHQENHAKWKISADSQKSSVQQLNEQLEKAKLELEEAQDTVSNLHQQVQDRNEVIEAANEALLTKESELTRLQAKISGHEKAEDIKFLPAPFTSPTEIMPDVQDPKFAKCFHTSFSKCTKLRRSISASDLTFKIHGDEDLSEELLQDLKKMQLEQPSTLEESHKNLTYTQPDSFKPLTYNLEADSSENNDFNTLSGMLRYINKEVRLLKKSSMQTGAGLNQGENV
UniProt Q13951, whole entry, looked up: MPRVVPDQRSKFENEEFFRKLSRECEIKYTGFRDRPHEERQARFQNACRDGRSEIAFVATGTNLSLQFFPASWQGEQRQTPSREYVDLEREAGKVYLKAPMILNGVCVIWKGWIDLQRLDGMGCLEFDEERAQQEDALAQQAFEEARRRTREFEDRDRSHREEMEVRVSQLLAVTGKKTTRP
UniProt P16070: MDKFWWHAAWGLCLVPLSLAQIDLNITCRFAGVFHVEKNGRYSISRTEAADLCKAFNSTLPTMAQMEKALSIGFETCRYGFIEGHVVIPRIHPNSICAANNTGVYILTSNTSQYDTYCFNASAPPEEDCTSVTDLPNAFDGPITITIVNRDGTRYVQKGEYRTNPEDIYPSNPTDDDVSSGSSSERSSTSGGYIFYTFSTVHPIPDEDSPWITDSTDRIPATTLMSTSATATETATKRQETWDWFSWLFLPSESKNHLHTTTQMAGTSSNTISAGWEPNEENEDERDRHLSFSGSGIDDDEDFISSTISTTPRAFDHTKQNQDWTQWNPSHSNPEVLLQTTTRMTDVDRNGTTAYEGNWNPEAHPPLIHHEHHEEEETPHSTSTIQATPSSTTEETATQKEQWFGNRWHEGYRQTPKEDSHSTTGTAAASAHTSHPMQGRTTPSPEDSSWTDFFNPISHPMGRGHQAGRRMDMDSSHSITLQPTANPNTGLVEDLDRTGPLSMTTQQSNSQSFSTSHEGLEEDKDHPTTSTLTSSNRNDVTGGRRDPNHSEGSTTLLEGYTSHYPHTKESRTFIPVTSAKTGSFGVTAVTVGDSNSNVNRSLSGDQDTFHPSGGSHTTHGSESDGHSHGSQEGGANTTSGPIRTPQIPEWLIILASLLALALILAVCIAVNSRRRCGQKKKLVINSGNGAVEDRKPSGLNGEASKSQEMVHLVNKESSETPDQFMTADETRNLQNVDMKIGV
UniProt Q8IVM0: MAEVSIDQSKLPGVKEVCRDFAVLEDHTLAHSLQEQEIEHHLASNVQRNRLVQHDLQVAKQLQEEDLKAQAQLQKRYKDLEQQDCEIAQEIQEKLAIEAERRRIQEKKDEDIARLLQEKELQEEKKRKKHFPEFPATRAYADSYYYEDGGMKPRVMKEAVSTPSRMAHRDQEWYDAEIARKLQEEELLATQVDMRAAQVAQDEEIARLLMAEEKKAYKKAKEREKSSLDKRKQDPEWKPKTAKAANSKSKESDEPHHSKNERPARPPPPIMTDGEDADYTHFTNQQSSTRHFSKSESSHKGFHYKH
UniProt P51636: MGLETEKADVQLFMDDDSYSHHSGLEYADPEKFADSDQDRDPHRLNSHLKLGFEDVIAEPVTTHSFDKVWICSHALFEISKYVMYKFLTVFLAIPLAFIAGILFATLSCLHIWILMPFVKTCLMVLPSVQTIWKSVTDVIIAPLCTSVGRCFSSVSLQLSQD
UniProt Q96MW1: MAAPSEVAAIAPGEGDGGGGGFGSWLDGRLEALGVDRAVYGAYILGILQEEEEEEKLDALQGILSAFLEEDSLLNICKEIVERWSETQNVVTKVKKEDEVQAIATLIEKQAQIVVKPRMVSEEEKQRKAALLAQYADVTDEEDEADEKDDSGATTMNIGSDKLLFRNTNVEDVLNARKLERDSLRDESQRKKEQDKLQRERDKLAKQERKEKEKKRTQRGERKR
UniProt Q96BQ5: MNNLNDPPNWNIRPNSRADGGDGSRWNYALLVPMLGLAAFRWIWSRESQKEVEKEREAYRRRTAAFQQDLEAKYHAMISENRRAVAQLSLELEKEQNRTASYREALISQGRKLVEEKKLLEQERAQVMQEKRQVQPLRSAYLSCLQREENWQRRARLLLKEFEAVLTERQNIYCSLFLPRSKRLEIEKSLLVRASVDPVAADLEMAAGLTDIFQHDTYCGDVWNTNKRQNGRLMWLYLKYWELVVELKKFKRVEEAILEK
UniProt O00421: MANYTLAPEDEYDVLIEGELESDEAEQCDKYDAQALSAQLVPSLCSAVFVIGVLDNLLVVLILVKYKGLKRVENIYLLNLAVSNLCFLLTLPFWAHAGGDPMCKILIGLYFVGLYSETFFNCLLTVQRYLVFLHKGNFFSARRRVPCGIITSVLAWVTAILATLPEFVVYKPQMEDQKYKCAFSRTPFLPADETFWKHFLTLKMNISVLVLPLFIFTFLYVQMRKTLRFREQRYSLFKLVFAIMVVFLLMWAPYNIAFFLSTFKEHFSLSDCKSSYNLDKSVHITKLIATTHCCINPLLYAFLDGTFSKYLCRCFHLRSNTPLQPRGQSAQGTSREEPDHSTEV
UniProt P30281: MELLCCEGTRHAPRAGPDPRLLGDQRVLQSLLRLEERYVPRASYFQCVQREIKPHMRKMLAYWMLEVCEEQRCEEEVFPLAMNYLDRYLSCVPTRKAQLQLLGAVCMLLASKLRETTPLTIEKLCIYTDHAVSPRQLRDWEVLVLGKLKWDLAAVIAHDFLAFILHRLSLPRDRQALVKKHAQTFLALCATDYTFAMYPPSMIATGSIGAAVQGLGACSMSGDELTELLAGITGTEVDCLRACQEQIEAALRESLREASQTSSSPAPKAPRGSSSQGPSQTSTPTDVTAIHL

[1] = compound: C1=CC(=CC=C1C2=NC3=C(N2)C=C(C=C3)C(=O)N)OC4=CC=C(C=C4)Cl
How it was run: as §1

[2] = compound: C1=CC2=NC=CN=C2C=C1/C=C/3\C(=O)NC(=O)S3
How it was run: as §1

[3] = compound: C1=CC=C(C=C1)C2=NC(=C(N2)C3=CC=NC=C3)C4=CC(=C(C=C4)Cl)O
How it was run: as §1

[4] = compound: C1CCN(C1)C(=O)NC2=CC=CC(=C2)NC3=NC=C(C(=N3)NCCC4=CN=CN4)Br
How it was run: as §1

[5] = compound: C1CN(CCC1(CC2=CC=C(C=C2)Cl)N)C3=NC=NC4=C3C=CN4
How it was run: as §1

IRAK-1-4 Inhibitor I = compound: C1COCCN1CCN2C3=CC=CC=C3N=C2NC(=O)C4=CC(=CC=C4)[N+](=O)[O-] [IRAK-1-4 Inhibitor I]
How it was run: as §1

[6] = compound: C/C(=N\NC(=O)C1=CC(=CC=C1)S(=O)(=O)N2CCOCC2)/C3=C(C=CC(=C3)Cl)O
How it was run: as §1

[7] = compound: C1=CC2=C(C=CC(=C2)/C=C\3/C(=O)NC(=NCC4=CC=CS4)S3)N=C1
How it was run: as §1

[8] = compound: C1=CC=C2C(=C1)C3=NNC4=CC=CC(=C43)C2=O
How it was run: as §1

Measured: log2 fold change

CCDC130 (UniProt P13994)
inactive: erlotinib -0.045 | [1] 0.28 | [2] 0.032 | [3] -0.224 | [4] -0.152 | [5] -0.016 | IRAK-1-4 Inhibitor I 0.025

CBX8 (UniProt Q9HC52)
inactive: [6] -0.255 | [7] 0.133 | [8] -0.046 | [4] -0.168 | [5] -0.02

CCDC59 (UniProt Q9P031)
inactive: [6] 0.006 | [7] -0.077 | [2] 0.018 | [8] 0.042 | [4] 0.071 | [5] -0.003

CCDC13 (UniProt Q8IYE1)
inactive: [6] 0.036 | [7] -0.026 | [2] -0.075 | [8] -0.28 | [4] -0.114 | [5] 0.232

CCT6B (UniProt Q92526)
inactive: [2] 0.082

CCNE1 (UniProt P24864)
inactive: [6] -0.146 | [7] 0.067 | [2] 0.051 | [3] 0.01 | [8] 0 | [4] 0.072 | [5] 0.074 | IRAK-1-4 Inhibitor I 0.007

CASP7 isoform 3 (UniProt P55210)
inactive: erlotinib 0.104 | [1] 0.008 | [2] -0.086 | [3] 0.019 | [4] -0.013 | [5] 0.098 | IRAK-1-4 Inhibitor I 0.241

CCDC66 (UniProt A2RUB6)
inactive: [3] 0.048 | [4] -0.04 | [5] -0.021 | IRAK-1-4 Inhibitor I 0.043

CD68 (UniProt P34810)
inactive: erlotinib 0.02 | [1] -0.033 | [4] 0.325 | [5] -0.377

CBX3 (UniProt B8ZZ43)
inactive: [3] 0.022 | IRAK-1-4 Inhibitor I 0.038

CASP8AP2 (UniProt Q9UKL3)
inactive: [2] 0.038 | [3] 0.074 | [4] -0.016 | [5] 0.043 | IRAK-1-4 Inhibitor I -0.183

CCDC85C (UniProt A6NKD9)
inactive: [6] -0.426 | [7] 0.012 | [2] -0.062 | [8] -0.046 | [4] 0.058 | [5] 0.018

CD276 (UniProt Q5ZPR3)
inactive: erlotinib 0.019 | [1] -0.014 | [3] -0.049 | IRAK-1-4 Inhibitor I 0.051

CD164 (UniProt Q04900)
inactive: erlotinib -0.011 | [1] 0.27

CCT6B isoform 3 (UniProt Q92526)
inactive: [6] -0.004 | [7] -0.01 | [8] -0.225

CCDC126 (UniProt Q96EE4)
inactive: erlotinib 0.061 | [1] 0.035

CCDC175 (UniProt P0C221)
inactive: [6] 0.018 | [7] -0.052 | [8] -0.169 | [4] -0.023 | [5] 0.225

CD226 (UniProt Q15762)
inactive: [2] -0.148

CCDC167 (UniProt Q9P0B6)
inactive: erlotinib -0.018 | [1] -0.205 | [2] -0.058

CCDC18 (UniProt Q5T9S5)
inactive: [3] 0.121 | [4] -0.095 | [5] -0.045 | IRAK-1-4 Inhibitor I 0.143

CCT8 (UniProt H7C4C8)
inactive: [3] 0.008 | IRAK-1-4 Inhibitor I 0.139

CBFB (UniProt Q13951)
inactive: erlotinib 0.028 | [1] -0.061 | [2] -0.031 | [3] 0.013 | [4] -0.004 | [5] 0.031 | IRAK-1-4 Inhibitor I -0.037

CCNL1 (UniProt Q9UK58)
inactive: [4] -0.036 | [5] -0.024

CD44 (UniProt P16070)
inactive: erlotinib -0.07 | [1] 0.05 | [4] -0.01 | [5] 0.026

CCDC50 (UniProt Q8IVM0)
inactive: erlotinib -0.065 | [1] 0.089 | [2] 0.092 | [3] 0.144 | [4] -0.09 | [5] -0.032 | IRAK-1-4 Inhibitor I 0.115

CAV2 (UniProt P51636)
inactive: erlotinib -0.016 | [1] -0.018 | [3] 0.099 | IRAK-1-4 Inhibitor I -0.064

CCDC43 isoform 2 (UniProt Q96MW1)
inactive: erlotinib 0.05 | [1] -0.04

CCDC127 (UniProt Q96BQ5)
inactive: erlotinib -0.014 | [1] -0.044 | [2] -0.025 | [3] -0.043 | [4] 0.049 | [5] -0.026 | IRAK-1-4 Inhibitor I 0.029

CCRL2 isoform 2 (UniProt O00421)
inactive: erlotinib -0.146 | [1] -0.009 | [2] 0.063 | [3] -0.152 | IRAK-1-4 Inhibitor I 0.097

CCND3 (UniProt P30281)
inactive: erlotinib -0.034 | [1] 0.064 | [2] -0.03 | [3] 0.106 | [4] -0.228 | [5] 0.116 | IRAK-1-4 Inhibitor I 0.033

CASP8 isoform 4 (UniProt Q14790)
inactive: [2] 0.096

CARHSP1 (UniProt H3BNU9)
inactive: [2] -0.215

Reprinted at random: three entries already listed
CCDC167 (UniProt Q9P0B6)
inactive: erlotinib -0.018 | [1] -0.205 | [2] -0.058

CCDC50 (UniProt Q8IVM0)
inactive: erlotinib -0.065 | [1] 0.089 | [2] 0.092 | [3] 0.144 | [4] -0.09 | [5] -0.032 | IRAK-1-4 Inhibitor I 0.115

CCDC126 (UniProt Q96EE4)
inactive: erlotinib 0.061 | [1] 0.035

(list continues)

CCNT2 (UniProt O60583)
inactive: [6] -0.252 | [7] -0.036 | [2] -0.047 | [3] 0.006 | [8] 0.119 | [4] 0.023 | [5] 0.07 | IRAK-1-4 Inhibitor I 0.091

CASP10 isoform 2 (UniProt Q92851)
inactive: [3] -0.094 | [4] -0.156 | [5] -0.111 | IRAK-1-4 Inhibitor I -0.147
